From PubChem BioAssay AID445 (National Center for Advancing Translational Sciences (NCATS), 2006)
The list shows a part of the results. The main result of the screen is listed elsewhere. These columns were measured beside it and carry no call. Most of these compounds were active or inconclusive in the main read-out, so they are no random draw. Words in brackets tell the shape of the fitted curve; partial curves, single points and poor fits give uncertain potencies.

Assay: IkB Signaling
Settings: ABC-DLBCL IkBa-CBG/CBR dual luciferase ratio (green luciferase fused to IkBa over red control in OCI-Ly3 lymphoma cells), 4 h
Summary of the method: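 Curves were fitted separately to fusion (green), unfused (red) and ratio luminescence, then classed by r2, magnitude and activity. Cells: OCI-Ly3, 4 h compound plus doxycycline at 37C; 10 uM MG-132 defined full response.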

[1] = measured here: control luc red channel unless noted

Q: For `COc1cc(OC)c(-c2nn3c(-c4ccncc4)nnc3s2)cc1OC`, which AC50 [1] is on record?
A: 7.94 µM [rising, partial curve]

Q: Which AC50 (measured here: IkB-luc green channel) does the source give for `CCOc1ccc(C(=O)Nc2cc(-c3nc4cc(OC)ccc4o3)ccc2C)cc1[N+](=O)[O-]` here?
A: 15.8 µM [rising, partial curve]

Q: And the AC50 (measured here: control luc red channel)?
A: 1.58 µM [falling, partial curve]

Q: For `COc1ccc(C(=O)Nc2nc(-c3cccs3)cs2)cc1`, which AC50 [1] is on record?
A: 7.94 µM [falling, partial curve]

Q: With `CCn1c2ccccc2c2cc(CN3CCN(Cc4cc(OC)c(O)c(OC)c4)CC3)ccc21` as the molecule, how does the AC50 [1] read?
A: 15.8 µM [falling, partial curve]

Q: With `COc1cc2[nH]c(=O)n(Cc3ccc(C(=O)N4CCN(c5ccc(Cl)cc5)CC4)cc3)c(=O)c2cc1OC` as the molecule, how does the AC50 [1] read?
A: 7.94 µM [falling, partial curve]

Q: With `Cc1ccc(Cn2c(C)nc3c(c2=O)c2nc4ccccc4nc2n3Cc2ccco2)cc1` as the molecule, how does the AC50 [1] read?
A: 12.6 µM [falling, partial curve]

Q: Which AC50 [1] does the source give for `CCc1cccc(NC(=O)CSc2nncn3c2cc2sccc23)c1` here?
A: 7.94 µM [falling, partial curve]

Q: For `COc1ccc(S(=O)(=O)NCCSc2nnnn2-c2ccccc2)cc1OC`, which AC50 [1] is on record?
A: 0.398 µM [rising, full curve]

Q: Which AC50 [1] does the source give for `CSc1nnc2c(n1)OC(C)N(C(=O)c1ccccc1)c1ccccc1-2` (stereo unspecified) here?
A: 0.02 µM [falling, full curve]

Q: For `O=C(Nc1ccccc1Oc1ccccc1)c1ccc(Br)o1`, which AC50 [1] is on record?
A: 20 µM [falling, partial curve]

Q: Which AC50 [1] does the source give for `COc1cccc(C2C(C(=O)Nc3ccc(Cl)cc3)=C(C)Nc3nc4ccccc4n32)c1OC` (stereo unspecified) here?
A: 10 µM [falling, partial curve]

Q: For `COc1cccc(-n2cnc3scc(-c4cccs4)c3c2=O)c1`, which AC50 [1] is on record?
A: 1.26 µM [rising, full curve]

Q: For `Cc1oc2ncn(CC(C)C)c(=O)c2c1C(=O)N(CCN(C)C)Cc1ccccc1`, which AC50 [1] is on record?
A: 1 µM [rising, full curve, poor fit]

Q: For `CCCc1nnc(NC(=O)c2cc(=O)c3ccccc3o2)s1`, which AC50 [1] is on record?
A: 39.8 µM [falling, single point]

Q: With `NC(=NCCCCCCN=C(N)/N=C(\N)Nc1ccc(Cl)cc1)/N=C(\N)Nc1ccc(Cl)cc1` as the molecule, how does the AC50 [1] read?
A: 31.6 µM [falling, partial curve]

Q: For `CCOC(=O)c1c(C)n(-c2ccccc2)c2ccc(OC(=O)COc3ccccc3)cc12`, which AC50 [1] is on record?
A: 25.1 µM [falling, single point]

Q: For `COc1ccc(N2CCN(C(=O)C3CCCN(C(=O)c4cc5sccc5n4C)C3)CC2)cc1` (stereo unspecified), which AC50 [1] is on record?
A: 5.01 µM [falling, partial curve]

Q: For `O=C(CSc1nc(=O)[nH]c2c1CCCC2)NCc1ccccc1Cl`, which AC50 [1] is on record?
A: 3.98 µM [rising, partial curve]

Q: For `Cc1ccc(OCc2nc3ccccc3n2CC(C)C)cc1`, which AC50 [1] is on record?
A: 31.6 µM [falling, single point]

Q: Which AC50 [1] does the source give for `Cc1cc(C(=O)CSc2nc(N)cc(N)n2)c(C)n1CCc1ccc(F)cc1` here?
A: 7.94 µM [falling, partial curve]

Q: With `Cc1cc2c(cc1S(=O)(=O)NCc1ccc(N(C)C)cc1)OCC(=O)N2` as the molecule, how does the AC50 [1] read?
A: 39.8 µM [falling, single point]

Q: For `CCCN(C(=O)c1cc2c(s1)-c1ccccc1SC2)c1ccccc1F`, which AC50 [1] is on record?
A: 1.26 µM [falling, full curve]

Q: Which AC50 [1] does the source give for `Cc1ccc(CN2CCC(CNc3ncnc4onc(-c5ccc(Cl)cc5)c34)CC2)cc1` here?
A: 20 µM [falling, single point]

Q: Which AC50 [1] does the source give for `CC1(c2ccc(Cl)cc2)CC(C)(C)N(C(=O)c2ccccc2)c2ccccc21` (stereo unspecified) here?
A: 7.94 µM [falling, partial curve]

Q: With `COc1cccc(-n2ccnc2SCC(=O)Nc2cccc(C)c2C)c1` as the molecule, how does the AC50 [1] read?
A: 0.1 µM [falling, full curve]

Q: With `COc1ccc(-n2ncc(C(=O)NCc3ccccc3)c2C2CCN(C(=O)OC(C)(C)C)CC2)cc1` as the molecule, how does the AC50 [1] read?
A: 39.8 µM [falling, partial curve, poor fit]

Q: Which AC50 [1] does the source give for `COc1ccc(-c2nc3c(C#N)c[nH]n3c2NC2CCCCC2)c(OC)c1` here?
A: 20 µM [falling, partial curve]

Q: For `COc1cccc(N2CCN(C(=O)C3CCC(CNS(=O)(=O)c4ccc(Br)s4)CC3)CC2)c1` (stereo unspecified), which AC50 [1] is on record?
A: 6.31 µM [falling, single point]

Q: Which AC50 [1] does the source give for `O=c1cc(-c2ccccc2)oc2cc(O)cc(O)c12` here?
A: 6.31 µM [falling, partial curve]

Q: With `CCn1c2ccccc2c2cc(C3C(C#N)=C(N)Oc4n[nH]c(COC)c43)ccc21` (stereo unspecified) as the molecule, how does the AC50 [1] read?
A: 15.8 µM [falling, partial curve]

Q: With `Cc1ccc2c(c1)[nH]c1c(N3CCN(Cc4ccccc4)CC3)ncnc12` as the molecule, how does the AC50 [1] read?
A: 3.16 µM [falling, full curve]

Q: For `c1coc(CNc2nc(N3CCCCC3)nc3ccccc23)c1`, which AC50 [1] is on record?
A: 39.8 µM [falling, single point]

Q: Which AC50 [1] does the source give for `CC(C)(C)NS(=O)(=O)c1ccc2nc(NC(=O)c3cccnc3)sc2c1` here?
A: 0.0501 µM [falling, full curve, poor fit]

Q: Which AC50 [1] does the source give for `COc1ccc(C)cc1NC(=O)c1oc2ccc(S(=O)(=O)N(C)C3CCCCC3)cc2c1C` here?
A: 25.1 µM [falling, partial curve, poor fit]

Q: With `CC(=O)N1c2ccccc2CC1C(=O)N1CCN(c2ccc(F)cc2)CC1` (stereo unspecified) as the molecule, how does the AC50 [1] read?
A: 0.0316 µM [rising, full curve, poor fit]

Q: With `O=C(Nc1ccc(F)cc1F)c1ccc(CN2CC(=O)N3CCCCC3C2=O)cc1` (stereo unspecified) as the molecule, how does the AC50 [1] read?
A: 12.6 µM [falling, partial curve]

Q: Which AC50 [1] does the source give for `CC(C)(C)c1cc(C(C)(C)C)c2oc(=O)c(-c3nc4ccccc4[nH]3)cc2c1` here?
A: 12.6 µM [falling, partial curve]

Q: For `Cc1ccc(Cn2c(SCC(=O)NCc3ccc(Cl)cc3)nc3ccsc3c2=O)cc1`, which AC50 [1] is on record?
A: 31.6 µM [rising, partial curve, poor fit]

Q: Which AC50 [1] does the source give for `Cc1noc(-c2ccccc2OCC(=O)Nc2cccc([N+](=O)[O-])c2)n1` here?
A: 25.1 µM [falling, single point]

Q: For `COC(=O)Nc1ccc(S(=O)(=O)N2CCCC(C(=O)Nc3cccc4c3OCCO4)C2)cc1` (stereo unspecified), which AC50 [1] is on record?
A: 25.1 µM [falling, partial curve]
